Reference: PMC10947329
Results are given in words; binding and its absence hold for the method and conditions named. In cells and extracts the contact can be indirect. Here binding means that the protein was enriched with, or labelled near, the bait; the list need not be complete.

B1: Acrosin (ACR) (protein, UniProt P08001 17-415)
chain: RDNATCDGPCGLRFRQKLESGMRVVGGMSAEPGAWPWMVSLQIFMYHNNRRYHTCGGILLNSHWVLTAAHCFKNKKKVTDWRLIFGANEVVWGSNKPVKPPLQERFVEEIIIHEKYVSGLEINDIALIKITPPVPCGPFIGPGCLPQFKAGPPRAPQTCWVTGWGYLKEKGPRTSPTLQEARVALIDLELCNSTRWYNGRIRSTNVCAGYPRGKIDTCQGDSGGPLMCRDRAENTFVVVGITSWGVGCARAKRPGVYTSTWPYLNWIASKIGSNALQMVQLGTPPRPSTPAPPVRPPSVQTPVRPPWYFQRPPGPSQQPGSRPRPPAPPPAPPPPPPPPPPPPPPPPPPPQQVSAKPPQALSFAKRLQQLIEALKGTAFSSGRSYYETETTDLQELPAS
B2: Acrosin binding protein, 60 kDa form (ACRBP) (protein, UniProt Q29016 26-539)
chain: QDANSASTPGSPLSPTEYERFFALLTPTWKAETTCRLRATHGCRNPTLVQLDQYENHGLVPDGAVCSDLPYASWFESFCQFTQYRCSNHVYYAKRVRCSQPVSILSPNSLKEVDTSSEVPITTMTSPVSSHITATGRQVFQPWPERLNNNVEELLQSSLSLGGQEQGQEHKQEHKQEQGQEHKQDEGQEQEEQEEEQEEEGKQEEGQGTEESLEAMSGLQADSEPKFQSEFVSSNPFSFTPRVREVESTPMMMENIQELIRSAQEMDEMGDVYEEENIWRAQSPGSLLQLPHVDALLVLCYSIVENTCVITPTAKAWQYLEDETLGFGKSVCDSLGRRHLAACSLCDFCSLKLEQCHSETNLQRQQCDNSHKTPFISPLLASQSMSIGTQIGTLKSGRFYGLDLYGGLRMDFWCARLATKGCEDNRVASWLQTEFLSFQDGDFPTKICDTEYVQYPNYCAFKSQQCMMRNRDRKVSRMRCLQNETYTVLTQAKSEDLVLRWSQEFSTLTLGQAG
B3: Sperm‐associated acrosin inhibitor (AI) (protein, UniProt P26461 27-97)
chain: ARSKKTRKEPDCDVYRSHLFFCTREMDPICGTNGKSYANPCIFCSEKLGRNEKFDFGHWGHCREYTSAARS

target: Cysteine‐rich secretory protein 2 (pig (endogenous in boar spermatozoa)); test: affinity purification with mass spectrometry + native gel or EMSA; anti-CRISP2 cross-linked to protein A/G magnetic beads, incubated with ~0.5 mg boar sperm lysate (NC, CAP, II) overnight at 4°C, eluate by LC-MS/MS; and the CRISP2-immunoreactive ~150 kDa band excised from blue native PAGE by LC-MS/MS; proteins common to both lists

binding, binds:
B1
B2
B3
